These are yes or no findings as the source states them, for the method shown. Binding seen in cells or lysates may run through a third protein. Some binding calls cover weakened binding; strength is not graded here. Tags and fused reporters may be left off the sequences shown.
Target: T1, WAPL-GFP (Wings apart-like protein, exogenous) (UniProt Q7Z5K2)
T1 sequence: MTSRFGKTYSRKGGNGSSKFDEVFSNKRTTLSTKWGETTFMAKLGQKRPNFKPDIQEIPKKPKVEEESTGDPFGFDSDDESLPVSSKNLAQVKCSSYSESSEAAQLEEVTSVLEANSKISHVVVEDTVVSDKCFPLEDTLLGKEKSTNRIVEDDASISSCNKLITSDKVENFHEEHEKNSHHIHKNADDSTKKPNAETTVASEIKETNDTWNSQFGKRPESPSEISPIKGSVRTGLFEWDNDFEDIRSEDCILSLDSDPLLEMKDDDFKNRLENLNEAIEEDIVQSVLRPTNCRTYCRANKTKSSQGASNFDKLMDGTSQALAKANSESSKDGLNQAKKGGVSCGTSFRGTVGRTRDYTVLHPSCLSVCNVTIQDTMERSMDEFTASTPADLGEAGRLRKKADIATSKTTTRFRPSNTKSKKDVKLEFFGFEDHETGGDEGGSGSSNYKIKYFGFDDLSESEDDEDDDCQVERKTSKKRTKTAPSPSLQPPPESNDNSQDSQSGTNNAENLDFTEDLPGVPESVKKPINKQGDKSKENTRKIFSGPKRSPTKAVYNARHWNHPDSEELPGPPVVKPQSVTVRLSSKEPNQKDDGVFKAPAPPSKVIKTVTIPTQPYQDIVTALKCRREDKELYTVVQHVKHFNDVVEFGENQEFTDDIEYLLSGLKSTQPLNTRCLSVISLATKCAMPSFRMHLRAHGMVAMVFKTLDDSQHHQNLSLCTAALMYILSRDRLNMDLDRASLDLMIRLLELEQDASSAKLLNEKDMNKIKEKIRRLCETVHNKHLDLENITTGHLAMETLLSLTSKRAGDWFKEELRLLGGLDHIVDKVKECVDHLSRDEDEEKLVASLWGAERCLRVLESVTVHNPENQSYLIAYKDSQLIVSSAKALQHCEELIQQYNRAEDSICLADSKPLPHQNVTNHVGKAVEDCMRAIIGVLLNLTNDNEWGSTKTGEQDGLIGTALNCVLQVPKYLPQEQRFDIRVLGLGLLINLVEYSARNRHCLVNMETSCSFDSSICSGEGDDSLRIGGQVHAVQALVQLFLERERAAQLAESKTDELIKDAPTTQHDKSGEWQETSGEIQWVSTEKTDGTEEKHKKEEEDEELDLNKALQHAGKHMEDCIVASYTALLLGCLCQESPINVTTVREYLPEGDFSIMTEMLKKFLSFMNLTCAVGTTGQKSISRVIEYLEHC
Assay: co-IP

In the case of “p62 (also known as Sequestosome-1) (from UniProt Q13501 1-440)”, the binding is reported as “binds”.

B1: Cohesin-associated factor B (PDS5B) (protein, UniProt Q9NTI5 1-1447)
chain: MAHSKTRTNDGKITYPPGVKEISDKISKEEMVRRLKMVVKTFMDMDQDSEEEKELYLNLALHLASDFFLKHPDKDVRLLVACCLADIFRIYAPEAPYTSPDKLKDIFMFITRQLKGLEDTKSPQFNRYFYLLENIAWVKSYNICFELEDSNEIFTQLYRTLFSVINNGHNQKVHMHMVDLMSSIICEGDTVSQELLDTVLVNLVPAHKNLNKQAYDLAKALLKRTAQAIEPYITNFFNQVLMLGKTSISDLSEHVFDLILELYNIDSHLLLSVLPQLEFKLKSNDNEERLQVVKLLAKMFGAKDSELASQNKPLWQCYLGRFNDIHVPIRLECVKFASHCLMNHPDLAKDLTEYLKVRSHDPEEAIRHDVIVSIVTAAKKDILLVNDHLLNFVRERTLDKRWRVRKEAMMGLAQIYKKYALQSAAGKDAAKQIAWIKDKLLHIYYQNSIDDRLLVERIFAQYMVPHNLETTERMKCLYYLYATLDLNAVKALNEMWKCQNLLRHQVKDLLDLIKQPKTDASVKAIFSKVMVITRNLPDPGKAQDFMKKFTQVLEDDEKIRKQLEVLVSPTCSCKQAEGCVREITKKLGNPKQPTNPFLEMIKFLLERIAPVHIDTESISALIKQVNKSIDGTADDEDEGVPTDQAIRAGLELLKVLSFTHPISFHSAETFESLLACLKMDDEKVAEAALQIFKNTGSKIEEDFPHIRSALLPVLHHKSKKGPPRQAKYAIHCIHAIFSSKETQFAQIFEPLHKSLDPSNLEHLITPLVTIGHIALLAPDQFAAPLKSLVATFIVKDLLMNDRLPGKKTTKLWVPDEEVSPETMVKIQAIKMMVRWLLGMKNNHSKSGTSTLRLLTTILHSDGDLTEQGKISKPDMSRLRLAAGSAIVKLAQEPCYHEIITLEQYQLCALAINDECYQVRQVFAQKLHKGLSRLRLPLEYMAICALCAKDPVKERRAHARQCLVKNINVRREYLKQHAAVSEKLLSLLPEYVVPYTIHLLAHDPDYVKVQDIEQLKDVKECLWFVLEILMAKNENNSHAFIRKMVENIKQTKDAQGPDDAKMNEKLYTVCDVAMNIIMSKSTTYSLESPKDPVLPARFFTQPDKNFSNTKNYLPPEMKSFFTPGKPKTTNVLGAVNKPLSSAGKQSQTKSSRMETVSNASSSSNPSSPGRIKGRLDSSEMDHSENEDYTMSSPLPGKKSDKRDDSDLVRSELEKPRGRKKTPVTEQEEKLGMDDLTKLVQEQKPKGSQRSRKRGHTASESDEQQWPEEKRLKEDILENEDEQNSPPKKGKRGRPPKPLGGGTPKEEPTMKTSKKGSKKKSGPPAPEEEEEEERQSGNTEQKSKSKQHRVSRRAQQRAESPESSAIESTQSTPQKGRGRPSKTPSPSQPKKNVRVGRSKQAATKENDSSEEVDVFQGSSPVDDIPQEETEEEEVSTVNVRRRSAKRERR
With B1 the binding was “binds”.
